Measurements as given in the supplement of paper PMC10849652.
This is one part of the list.

Sequences of proteins named here, by UniProt entry; tags and fusion partners are left off. A change or cut given only in a name is not applied to a line headed by its entry.
UniProt Q99720, whole entry, looked up: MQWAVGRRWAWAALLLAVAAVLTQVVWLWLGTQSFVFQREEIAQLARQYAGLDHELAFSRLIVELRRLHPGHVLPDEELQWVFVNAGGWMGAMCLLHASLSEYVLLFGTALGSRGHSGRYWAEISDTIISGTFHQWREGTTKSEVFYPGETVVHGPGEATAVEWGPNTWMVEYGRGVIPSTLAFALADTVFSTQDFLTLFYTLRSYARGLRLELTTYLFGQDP
UniProt Q9BWJ5: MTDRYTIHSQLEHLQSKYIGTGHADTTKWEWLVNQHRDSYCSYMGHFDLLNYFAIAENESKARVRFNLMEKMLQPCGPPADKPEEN
UniProt O43166: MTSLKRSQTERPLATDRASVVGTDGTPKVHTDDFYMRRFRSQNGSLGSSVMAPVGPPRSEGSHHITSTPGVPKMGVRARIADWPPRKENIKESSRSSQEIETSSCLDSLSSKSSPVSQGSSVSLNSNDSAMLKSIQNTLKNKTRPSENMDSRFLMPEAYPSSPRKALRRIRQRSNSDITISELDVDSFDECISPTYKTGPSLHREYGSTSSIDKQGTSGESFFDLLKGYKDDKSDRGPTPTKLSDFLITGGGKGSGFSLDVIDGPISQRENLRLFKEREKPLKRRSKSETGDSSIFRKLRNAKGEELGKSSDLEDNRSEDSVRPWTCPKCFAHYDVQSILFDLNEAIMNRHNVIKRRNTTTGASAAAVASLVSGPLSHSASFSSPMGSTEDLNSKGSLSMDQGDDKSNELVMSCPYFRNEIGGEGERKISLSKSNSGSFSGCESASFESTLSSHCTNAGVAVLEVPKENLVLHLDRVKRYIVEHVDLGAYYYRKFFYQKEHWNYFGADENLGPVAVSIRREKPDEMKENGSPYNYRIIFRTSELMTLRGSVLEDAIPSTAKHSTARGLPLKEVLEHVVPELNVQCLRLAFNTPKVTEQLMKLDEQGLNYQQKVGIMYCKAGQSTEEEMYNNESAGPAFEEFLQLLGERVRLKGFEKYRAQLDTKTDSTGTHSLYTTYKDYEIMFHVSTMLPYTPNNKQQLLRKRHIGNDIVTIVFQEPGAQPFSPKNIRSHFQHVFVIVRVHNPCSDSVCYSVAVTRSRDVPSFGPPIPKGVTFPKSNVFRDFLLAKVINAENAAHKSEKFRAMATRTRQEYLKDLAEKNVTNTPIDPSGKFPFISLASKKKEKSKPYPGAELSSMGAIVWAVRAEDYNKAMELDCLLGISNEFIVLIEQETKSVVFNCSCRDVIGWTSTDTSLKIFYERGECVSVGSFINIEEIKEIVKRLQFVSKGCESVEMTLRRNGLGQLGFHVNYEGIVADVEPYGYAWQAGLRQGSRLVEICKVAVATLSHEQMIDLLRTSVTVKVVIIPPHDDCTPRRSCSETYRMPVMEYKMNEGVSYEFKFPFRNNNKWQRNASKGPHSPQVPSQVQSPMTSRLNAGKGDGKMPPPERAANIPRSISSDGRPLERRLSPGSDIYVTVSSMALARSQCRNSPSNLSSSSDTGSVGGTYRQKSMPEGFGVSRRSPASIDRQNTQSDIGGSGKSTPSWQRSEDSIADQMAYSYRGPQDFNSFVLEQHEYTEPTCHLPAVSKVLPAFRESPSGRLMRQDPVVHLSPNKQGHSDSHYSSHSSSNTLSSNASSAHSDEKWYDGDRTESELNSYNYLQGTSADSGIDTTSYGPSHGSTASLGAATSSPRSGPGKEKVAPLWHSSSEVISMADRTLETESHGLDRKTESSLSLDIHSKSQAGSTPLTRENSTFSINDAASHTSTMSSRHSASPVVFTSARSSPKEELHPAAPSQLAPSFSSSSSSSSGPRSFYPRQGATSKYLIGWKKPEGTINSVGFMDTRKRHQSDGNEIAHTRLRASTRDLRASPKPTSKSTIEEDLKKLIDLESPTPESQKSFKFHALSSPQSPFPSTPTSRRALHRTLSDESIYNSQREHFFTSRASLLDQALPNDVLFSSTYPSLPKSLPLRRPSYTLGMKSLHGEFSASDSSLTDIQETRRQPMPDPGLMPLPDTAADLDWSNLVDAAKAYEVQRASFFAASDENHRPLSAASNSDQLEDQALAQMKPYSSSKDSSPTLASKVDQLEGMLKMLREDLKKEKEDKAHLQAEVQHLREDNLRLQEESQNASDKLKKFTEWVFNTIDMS
UniProt Q6P4A7: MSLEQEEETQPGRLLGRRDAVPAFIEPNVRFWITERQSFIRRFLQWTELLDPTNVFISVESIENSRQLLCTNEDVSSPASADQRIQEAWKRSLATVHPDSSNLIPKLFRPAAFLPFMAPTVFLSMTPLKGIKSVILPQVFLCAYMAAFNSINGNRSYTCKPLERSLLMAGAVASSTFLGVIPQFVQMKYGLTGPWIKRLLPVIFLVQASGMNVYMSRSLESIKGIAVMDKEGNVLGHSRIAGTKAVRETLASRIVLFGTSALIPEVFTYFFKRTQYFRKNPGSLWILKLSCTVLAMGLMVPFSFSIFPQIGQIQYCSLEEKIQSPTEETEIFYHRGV
UniProt Q08357: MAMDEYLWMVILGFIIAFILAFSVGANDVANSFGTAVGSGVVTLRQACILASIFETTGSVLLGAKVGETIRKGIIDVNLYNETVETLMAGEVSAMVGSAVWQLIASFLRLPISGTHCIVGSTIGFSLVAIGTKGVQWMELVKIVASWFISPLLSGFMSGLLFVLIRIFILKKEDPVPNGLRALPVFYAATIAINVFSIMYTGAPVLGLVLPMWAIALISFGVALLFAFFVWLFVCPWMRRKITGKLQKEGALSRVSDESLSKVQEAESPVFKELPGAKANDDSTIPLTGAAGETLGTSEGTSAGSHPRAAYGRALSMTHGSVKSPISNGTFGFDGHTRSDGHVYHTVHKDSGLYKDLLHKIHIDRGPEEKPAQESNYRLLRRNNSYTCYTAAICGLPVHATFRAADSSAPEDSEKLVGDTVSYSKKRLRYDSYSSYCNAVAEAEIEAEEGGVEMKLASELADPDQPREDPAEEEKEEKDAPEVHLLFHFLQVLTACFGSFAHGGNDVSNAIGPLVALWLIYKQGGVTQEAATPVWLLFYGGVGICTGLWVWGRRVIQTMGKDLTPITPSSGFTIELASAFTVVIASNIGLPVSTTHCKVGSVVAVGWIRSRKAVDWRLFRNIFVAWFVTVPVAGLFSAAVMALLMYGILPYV
UniProt Q9BX95: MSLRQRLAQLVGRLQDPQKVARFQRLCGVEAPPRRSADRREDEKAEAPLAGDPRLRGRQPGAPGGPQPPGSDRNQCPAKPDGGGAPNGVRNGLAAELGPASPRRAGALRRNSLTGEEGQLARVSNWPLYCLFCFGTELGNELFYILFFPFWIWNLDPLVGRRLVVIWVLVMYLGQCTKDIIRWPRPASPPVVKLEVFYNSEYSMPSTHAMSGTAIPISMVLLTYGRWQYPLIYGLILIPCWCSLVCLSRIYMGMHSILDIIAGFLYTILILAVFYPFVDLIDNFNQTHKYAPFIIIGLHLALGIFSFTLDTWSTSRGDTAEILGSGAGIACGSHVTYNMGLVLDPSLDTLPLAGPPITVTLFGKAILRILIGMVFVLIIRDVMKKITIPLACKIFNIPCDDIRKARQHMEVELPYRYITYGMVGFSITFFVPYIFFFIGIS
UniProt Q8N196: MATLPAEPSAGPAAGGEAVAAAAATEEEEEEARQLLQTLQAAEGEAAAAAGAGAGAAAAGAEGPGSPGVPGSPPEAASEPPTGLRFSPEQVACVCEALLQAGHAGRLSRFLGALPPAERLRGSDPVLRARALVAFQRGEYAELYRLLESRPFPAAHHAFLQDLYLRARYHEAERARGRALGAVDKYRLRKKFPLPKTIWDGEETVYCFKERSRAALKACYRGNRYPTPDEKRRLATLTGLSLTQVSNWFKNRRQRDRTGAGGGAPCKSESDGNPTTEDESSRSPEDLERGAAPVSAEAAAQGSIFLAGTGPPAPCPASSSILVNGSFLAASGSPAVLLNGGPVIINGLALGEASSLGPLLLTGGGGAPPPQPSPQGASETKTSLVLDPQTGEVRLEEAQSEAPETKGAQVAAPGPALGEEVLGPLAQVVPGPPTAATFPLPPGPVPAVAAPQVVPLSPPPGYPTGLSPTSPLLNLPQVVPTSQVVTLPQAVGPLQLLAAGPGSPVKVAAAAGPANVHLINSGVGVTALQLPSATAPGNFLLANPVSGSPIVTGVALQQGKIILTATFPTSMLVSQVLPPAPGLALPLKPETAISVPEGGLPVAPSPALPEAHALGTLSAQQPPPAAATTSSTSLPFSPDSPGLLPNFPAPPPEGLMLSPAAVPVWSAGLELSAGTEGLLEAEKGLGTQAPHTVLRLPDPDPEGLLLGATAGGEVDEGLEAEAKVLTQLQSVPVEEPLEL
UniProt Q587I9: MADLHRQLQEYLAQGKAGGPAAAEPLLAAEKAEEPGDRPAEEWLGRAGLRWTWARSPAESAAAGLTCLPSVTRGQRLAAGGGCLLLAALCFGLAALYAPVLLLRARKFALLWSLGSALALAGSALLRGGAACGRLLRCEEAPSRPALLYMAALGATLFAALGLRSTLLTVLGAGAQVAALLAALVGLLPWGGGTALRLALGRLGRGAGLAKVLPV
UniProt Q15637: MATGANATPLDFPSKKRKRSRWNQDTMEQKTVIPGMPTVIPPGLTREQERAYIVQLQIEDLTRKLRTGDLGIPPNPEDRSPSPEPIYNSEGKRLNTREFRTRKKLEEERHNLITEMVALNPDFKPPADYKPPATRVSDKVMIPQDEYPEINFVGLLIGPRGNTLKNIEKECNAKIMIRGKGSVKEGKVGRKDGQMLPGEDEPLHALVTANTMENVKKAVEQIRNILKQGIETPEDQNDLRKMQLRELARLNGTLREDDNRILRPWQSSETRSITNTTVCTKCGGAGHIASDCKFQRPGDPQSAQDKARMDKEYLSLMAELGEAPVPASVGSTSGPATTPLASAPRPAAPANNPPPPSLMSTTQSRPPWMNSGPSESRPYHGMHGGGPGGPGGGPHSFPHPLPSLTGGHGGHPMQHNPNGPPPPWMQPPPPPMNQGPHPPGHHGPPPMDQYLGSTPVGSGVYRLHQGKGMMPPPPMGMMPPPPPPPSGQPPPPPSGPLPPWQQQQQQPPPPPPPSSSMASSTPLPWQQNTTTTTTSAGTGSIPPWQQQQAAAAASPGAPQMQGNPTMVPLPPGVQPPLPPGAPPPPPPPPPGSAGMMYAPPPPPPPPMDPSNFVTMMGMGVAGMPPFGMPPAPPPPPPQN
UniProt Q8IW75: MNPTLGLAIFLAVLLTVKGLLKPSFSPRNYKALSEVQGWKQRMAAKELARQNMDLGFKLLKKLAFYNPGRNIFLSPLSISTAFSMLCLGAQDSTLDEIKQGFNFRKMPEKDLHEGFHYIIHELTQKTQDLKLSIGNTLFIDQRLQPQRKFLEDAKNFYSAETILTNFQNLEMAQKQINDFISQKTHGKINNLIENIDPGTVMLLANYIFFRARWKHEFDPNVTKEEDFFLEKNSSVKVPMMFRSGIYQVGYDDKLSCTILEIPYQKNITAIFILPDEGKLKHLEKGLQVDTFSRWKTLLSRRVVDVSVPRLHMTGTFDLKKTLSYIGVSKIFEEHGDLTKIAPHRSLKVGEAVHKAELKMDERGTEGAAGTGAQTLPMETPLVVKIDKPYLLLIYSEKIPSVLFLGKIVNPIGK
UniProt Q8NC51: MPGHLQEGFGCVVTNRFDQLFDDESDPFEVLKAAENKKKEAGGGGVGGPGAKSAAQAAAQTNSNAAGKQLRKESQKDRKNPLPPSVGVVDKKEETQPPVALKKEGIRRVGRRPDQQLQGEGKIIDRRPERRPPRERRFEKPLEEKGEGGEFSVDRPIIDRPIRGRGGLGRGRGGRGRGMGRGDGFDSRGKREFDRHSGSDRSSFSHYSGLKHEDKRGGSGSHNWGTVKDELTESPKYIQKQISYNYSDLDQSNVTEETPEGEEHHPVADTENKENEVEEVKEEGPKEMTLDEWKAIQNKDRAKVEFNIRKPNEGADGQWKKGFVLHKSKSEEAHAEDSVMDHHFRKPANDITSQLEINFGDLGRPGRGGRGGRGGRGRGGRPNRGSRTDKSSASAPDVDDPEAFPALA

Assays:
Test in all cases: log2 fold change, soluble protein after heating vs DMSO (PISA); higher = thermal stabilisation; K562 lysate, 10 uM; active = over 0.2 and 3.5 SD of the protein, either way, in both replicates (recomputed)
nilotinib = compound: Cc1cn(-c2cc(NC(=O)c3ccc(C)c(Nc4nccc(-c5cccnc5)n4)c3)cc(C(F)(F)F)c2)cn1 [nilotinib]
Method in brief: (§1)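 K562 pellets were dounce-homogenised in PBS pH 7.4 containing 1 mM MgCl2, and the crude extract, at 1 mg/mL protein, was exposed to 10 μM compound for 30 min. Aliquots were heated for 3 min across 48°C-58°C, pooled, brought to 0.5% NP-40 at 4°C and spun at 21,000xg for 90 min, with the supernatant taken as soluble protein. TMTpro 16plex LC-MS/MS with equalised channel sums quantified that protein. Values are log-two fold changes in thermal stability relative to solvent controls, taken from duplicates.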

[1] = compound: Cc1nc(Nc2n[nH]c3c2CN(C(=O)N[C@H](CN(C)C)c2ccccc2)C3(C)C)c2sccc2n1
Method in brief: as §1

dasatinib = compound: Cc1nc(Nc2ncc(C(=O)Nc3c(C)cccc3Cl)s2)cc(N2CCN(CCO)CC2)n1 [dasatinib]
Method in brief: as §1

[2] = compound: Cc1ncc(-c2ccnc(Nc3ccc(S(C)(=O)=O)cc3)n2)n1C(C)C
Method in brief: as §1

[3] = compound: Cn1cc(-c2ccc3c(c2)CCN3C(=O)Cc2cccc(C(F)(F)F)c2)c2c(N)ncnc21
Method in brief: as §1

tipifarnib = compound: Cn1cncc1[C@@](N)(c1ccc(Cl)cc1)c1ccc2c(c1)c(-c1cccc(Cl)c1)cc(=O)n2C [tipifarnib]
Method in brief: as §1

[4] = compound: NC(=O)Nc1cc(-c2cccc(F)c2)sc1C(=O)N[C@H]1CCCNC1
Method in brief: as §1

[5] = compound: NC(=O)c1cnc(N[C@@H]2CCCC[C@@H]2N)nc1Nc1cccc(-n2nccn2)c1
Method in brief: as §1

[6] = compound: NC1(c2ccc(-c3nc4ccn5c(=O)[nH]nc5c4cc3-c3ccccc3)cc2)CCC1
Method in brief: as §1

[7] = compound: NCC(=O)Nc1ccc(-n2nc(C(F)(F)F)cc2-c2ccc3c(ccc4ccccc43)c2)cc1
Method in brief: as §1

vorinostat = compound: O=C(CCCCCCC(=O)Nc1ccccc1)NO [vorinostat]
Method in brief: as §1

silmitasertib = compound: O=C(O)c1ccc2c(c1)nc(Nc1cccc(Cl)c1)c1ccncc12 [silmitasertib]
Method in brief: as §1

[8] = compound: O=C1NC(=O)C(c2cnc3ccccn23)=C1c1cn2c3c(cc(F)cc13)CN(C(=O)N1CCCCC1)CC2
Method in brief: as §1

entospletinib = compound: c1cn2cc(-c3ccc4cn[nH]c4c3)nc(Nc3ccc(N4CCOCC4)cc3)c2n1 [entospletinib]
Method in brief: as §1

quisinostat = compound: Cn1cc(CNCC2CCN(c3ncc(C(=O)NO)cn3)CC2)c2ccccc21 [quisinostat]
Method in brief: as §1

Measured: log2 fold change

SIGMAR1 (UniProt Q99720)
inactive: nilotinib -0.052 | [1] 0.042 | dasatinib 0.047 | [2] 0.001 | [3] -0.012 | tipifarnib -0.059 | [4] 0.01 | [5] 0.016 | [6] 0.053 | [7] -0.012 | vorinostat 0.039 | silmitasertib -0.022 | [8] -0.008 | entospletinib -0.034

SF3B5 (UniProt Q9BWJ5)
inactive: nilotinib 0.146 | [1] -0.083 | dasatinib -0.035 | [2] -0.006 | [3] 0.016 | quisinostat -0.051 | tipifarnib 0.036 | [4] 0.03 | [5] -0.104 | [6] 0.021 | [7] -0.074 | vorinostat -0.34 | silmitasertib 0.03 | [8] 0.092 | entospletinib -0.069

SIPA1L1 (UniProt O43166)
inactive: nilotinib 0.04 | [1] -0.08 | [2] -0.024 | quisinostat -0.02 | tipifarnib 0 | [4] -0.022 | [5] 0.038 | [6] -0.069 | [7] 0.03 | vorinostat 0.164 | silmitasertib -0.112 | [8] 0.037 | entospletinib -0.026

SFXN4 (UniProt Q6P4A7)
inactive: nilotinib -0.034 | [1] -0.013 | dasatinib 0.015 | [2] 0.006 | [3] -0.066 | quisinostat -0.178 | tipifarnib -0.006 | [4] 0.002 | [5] -0.067 | [6] -0.003 | [7] -0.038 | vorinostat -0.066 | silmitasertib -0.076 | [8] -0.034 | entospletinib -0.02

SIK3 (UniProt Q9Y2K2)
inactive: nilotinib 0.132 | [1] 0.201 | dasatinib 0.101 | [2] -0.078 | [3] -0.296 | quisinostat -0.046 | tipifarnib -0.087 | [4] 0.19 | [6] -0.028 | vorinostat 0.051 | silmitasertib 0.209 | [8] -0.02 | entospletinib 0.06

SLC12A6 (UniProt Q9UHW9)
inactive: nilotinib -0.004 | [1] 0 | dasatinib 0.024 | [2] -0.066 | [3] -0.003 | quisinostat -0.013 | tipifarnib 0.012 | [4] -0.001 | [5] -0.022 | [6] 0.026 | [7] 0.009 | vorinostat 0.15 | silmitasertib -0.045 | [8] 0.003 | entospletinib 0.013

Looked up one by one from the entries so far (2):
SIPA1L1 (UniProt O43166)
inactive: nilotinib 0.04 | [1] -0.08 | [2] -0.024 | quisinostat -0.02 | tipifarnib 0 | [4] -0.022 | [5] 0.038 | [6] -0.069 | [7] 0.03 | vorinostat 0.164 | silmitasertib -0.112 | [8] 0.037 | entospletinib -0.026

SIK3 (UniProt Q9Y2K2)
inactive: nilotinib 0.132 | [1] 0.201 | dasatinib 0.101 | [2] -0.078 | [3] -0.296 | quisinostat -0.046 | tipifarnib -0.087 | [4] 0.19 | [6] -0.028 | vorinostat 0.051 | silmitasertib 0.209 | [8] -0.02 | entospletinib 0.06

The list continues.

SLC20A2 (UniProt Q08357)
inactive: nilotinib 0.03 | [1] -0.247 | dasatinib -0.009 | [2] -0.065 | [3] 0.012 | quisinostat 0.052 | tipifarnib 0.002 | [4] -0.06 | [5] 0.015 | [7] 0.051 | [8] -0.049 | entospletinib 0.042

SHPRH (UniProt Q149N8)
inactive: nilotinib 0.023 | [1] -0.012 | dasatinib -0.03 | [2] -0.077 | [3] 0.062 | quisinostat -0.086 | tipifarnib 0.103 | [4] 0.065 | [5] -0.064 | [6] 0.022 | [7] -0.025 | vorinostat -0.417 | silmitasertib 0.087 | [8] 0.081 | entospletinib -0.138

SGPP1 (UniProt Q9BX95)
inactive: nilotinib 0.037 | [1] 0.036 | dasatinib -0.009 | [2] 0.052 | [3] 0 | quisinostat 0.044 | tipifarnib 0.011 | [4] -0.249 | [5] -0.046 | [6] 0.05 | [7] 0.07 | vorinostat -0.153 | silmitasertib -0.094 | [8] -0.088 | entospletinib -0.038

SIX5 (UniProt Q8N196)
inactive: nilotinib 0.06 | [1] -0.05 | dasatinib 0.02 | [2] 0.074 | [3] -0.064 | quisinostat -0.141 | tipifarnib 0.02 | [4] 0.08 | [5] 0.092 | [6] -0.025 | vorinostat 0.162 | silmitasertib -0.011 | [8] -0.097

SFT2D3 (UniProt Q587I9)
inactive: nilotinib 0.052 | [1] -0.042 | dasatinib 0.035 | [2] 0.056 | [3] 0.028 | quisinostat 0.019 | tipifarnib 0.02 | [4] -0.173 | [5] 0.04 | [6] -0.041 | vorinostat 0.154 | silmitasertib -0.054 | [8] -0.03 | entospletinib 0.076

SF1 isoform 6 (UniProt Q15637)
inactive: nilotinib 0.086 | [1] -0.012 | dasatinib -0.031 | [2] -0.008 | [3] -0.135 | tipifarnib -0.033 | [5] 0.027 | [6] -0.046 | [7] -0.032 | vorinostat 0.126 | silmitasertib -0.109 | entospletinib 0.046

SERPINA12 (UniProt Q8IW75)
inactive: nilotinib 0.145 | [1] 0.225 | dasatinib -0.39 | [2] -0.234 | [3] -0.057 | quisinostat 0.152 | tipifarnib -0.081 | [4] 0.017 | [5] 0.224 | [6] 0.169 | vorinostat 0.495 | silmitasertib -0.307 | [8] 0.471

SERBP1 (UniProt Q8NC51)
inactive: nilotinib -0.031 | [1] 0.021 | dasatinib 0.044 | [2] -0.006 | [3] -0.025 | quisinostat 0.023 | tipifarnib 0.003 | [4] -0.012 | [5] -0.03 | [6] 0.004 | [7] 0.014 | vorinostat 0.133 | silmitasertib -0.043 | [8] 0.004 | entospletinib 0.033

SERBP1 isoform 3 (UniProt Q8NC51)
inactive: dasatinib 0.006 | [3] 0.025 | quisinostat -0.051 | [4] 0.016 | [5] -0.056 | [6] -0.185 | vorinostat 0 | silmitasertib -0.085 | [8] -0.052 | entospletinib 0.032
